Record: PubChem BioAssay AID1053208 (Peter MacCallum Cancer Centre, 2014)

Assay: 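Synthetic lethal interactions between gene loss and doxorubicin in osteosarcoma cells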 (primary screen)
System: mouse osteosarcoma cells, early-passage culture from an engineered mouse model of fibroblastic bone tumour
Reagent: siRNA pool against mouse genes, 40 nM
Duration: about 120 h (48 h before drug, then 72 h with drug)
Challenge: doxorubicin 100 nM for 72 h, roughly 30-40% inhibitory dose
Measured: 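Luminescent ATP signal taken as viability with or without 100 nM doxorubicin for 72 h; mean of two wells set against non-targeting siRNA and turned into robust z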
Scale: viability z-score with doxorubicin and doxorubicin viability vs non-targeting: higher = more viable cells under doxorubicin; viability z-score without drug: higher = more viable cells with knock-down alone; z-score of drug to no-drug ratio: higher = less drug sensitisation by knock-down
Call rule: 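Called active if knock-down leaves viability unchanged without drug (z within -2 to 2) but lowers it with doxorubicin (z at or under -2)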
Here is a random part of about 17,000 deposited reagents. 788 of all reagents (4.7%) count as active. 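Calls rest on z-score classes alone; an extra cut-off of viability at most 70% of control was not applied to them.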

no.	Gene	combined z-score class	viability z-score with doxorubicin	viability z-score without drug	z-score of drug to no-drug ratio	doxorubicin viability vs non-targeting	Call
1	Skint10 (GeneID 230613)	high cell count with doxorubicin only	2.25	1.85	1.12	1.14	inactive
2	Timm8b (GeneID 30057)	low cell count with doxorubicin only	-3.15	-0.17	-3.15	0.66	active
3	Wdr20rt (GeneID 70948)	low cell count with doxorubicin only	-2.36	-1.18	-1.69	0.73	active
4	Asb9 (GeneID 69299)	no change with or without drug	0.34	-0.84	1.12	0.97	inactive
5	Dpp9 (GeneID 224897)	no change with or without drug	-0.67	1.01	-1.24	0.88	inactive
6	Tmbim4 (GeneID 68212)	no change with or without drug	1.91	0.84	1.46	1.11	inactive
7	Cd7 (GeneID 12516)	no change with or without drug	-0.56	-0.34	-0.22	0.89	inactive
8	Dleu7 (GeneID 239133)	no change with or without drug	-0.67	-0.51	-0.22	0.88	inactive
9	Snrnp25 (GeneID 78372)	no change with or without drug	-0.79	-0.51	-0.34	0.87	inactive
10	Khdc4 (GeneID 74200)	no change with or without drug	0.67	0.84	0.22	1	inactive
11	Pstpip1 (GeneID 19200)	no change with or without drug	0.9	0.34	0.79	1.02	inactive
12	Drg2 (GeneID 13495)	no change with or without drug	0.22	-0.84	1.01	0.96	inactive
13	Rbm38 (GeneID 56190)	no change with or without drug	-0.56	0.17	-0.56	0.89	inactive
14	Dsg2 (GeneID 13511)	no change with or without drug	0.45	-0.17	0.67	0.98	inactive
15	Fcamr (GeneID 64435)	no change with or without drug	-0.67	1.18	-1.35	0.88	inactive
16	Tbc1d14 (GeneID 100855)	no change with or without drug	1.57	0.17	1.69	1.08	inactive
17	F630111L10Rik (GeneID 320463)	no change with or without drug	1.01	1.01	0.45	1.03	inactive
18	Ano6 (GeneID 105722)	no change with or without drug	1.35	0.84	0.9	1.06	inactive
19	Mtfmt (GeneID 69606)	no change with or without drug	1.12	0.51	0.9	1.04	inactive
20	Ica1l (GeneID 70375)	no change with or without drug	0.22	0.17	0.22	0.96	inactive
21	Cpeb2 (GeneID 231207)	no change with or without drug	0	0.17	0	0.94	inactive
22	Arln (GeneID 67704)	no change with or without drug	0.22	0.34	0.11	0.96	inactive
23	Abhd17b (GeneID 226016)	no change with or without drug	0.22	1.85	-0.79	0.96	inactive
24	Robo2 (GeneID 268902)	no change with or without drug	0.45	-0.17	0.67	0.98	inactive
25	Cdh22 (GeneID 104010)	no change with or without drug	-1.57	-1.18	-0.79	0.8	inactive
26	Kdsr (GeneID 70750)	low cell count with doxorubicin only	-2.02	-0.67	-1.57	0.76	active
27	2700050F09RIK	no change with or without drug	1.12	1.18	0.45	1.04	inactive
28	Sema6a (GeneID 20358)	no change with or without drug	0.34	-0.17	0.56	0.97	inactive
29	Cplx2 (GeneID 12890)	no change with or without drug	-0.22	1.18	-0.9	0.92	inactive
30	Mcmbp (GeneID 210711)	no change with or without drug	-1.01	-1.18	-0.11	0.85	inactive
31	A730085E03Rik (GeneID 100504650)	no change with or without drug	0	-0.51	0.45	0.94	inactive
32	Arl5b (GeneID 75869)	no change with or without drug	-0.34	0	-0.22	0.91	inactive
33	Actrt1 (GeneID 73360)	no change with or without drug	-0.67	-0.51	-0.22	0.88	inactive
34	Acaca (GeneID 107476)	no change with or without drug	1.35	0.84	0.9	1.06	inactive
35	Slit2 (GeneID 20563)	no change with or without drug	1.35	0.51	1.12	1.06	inactive
36	Nfrkb (GeneID 235134)	no change with or without drug	-0.34	-0.84	0.34	0.91	inactive
37	Sgsm1 (GeneID 52850)	high cell count without drug only	-0.22	2.53	-1.57	0.92	inactive
38	Acsm1 (GeneID 117147)	no change with or without drug	0	0.51	-0.22	0.94	inactive
39	Dnph1 (GeneID 381101)	no change with or without drug	0.9	0.67	0.56	1.02	inactive
40	Kcnd3 (GeneID 56543)	no change with or without drug	1.01	1.52	0.11	1.03	inactive
41	Vps50 (GeneID 73288)	no change with or without drug	-1.35	1.52	-2.14	0.82	inactive
42	Ghsr (GeneID 208188)	no change with or without drug	-0.79	-0.17	-0.56	0.87	inactive
43	Brcc3dc (GeneID 368203)	high cell count with and without drug	2.47	2.36	0.9	1.16	inactive
44	Iigp1 (GeneID 60440)	no change with or without drug	0.34	0.17	0.34	0.97	inactive
45	Tmem130 (GeneID 243339)	no change with or without drug	0.22	-0.17	0.45	0.96	inactive
46	Mrps24 (GeneID 64660)	low cell count with and without drug	-3.37	-2.87	-1.8	0.64	inactive
47	Cd72 (GeneID 12517)	no change with or without drug	-1.12	-0.51	-0.79	0.84	inactive
48	Fbxo44 (GeneID 230903)	no change with or without drug	1.35	0.51	1.12	1.06	inactive
49	Cops7b (GeneID 26895)	high cell count without drug only	0.9	2.02	-0.34	1.02	inactive
50	Epyc (GeneID 13516)	no change with or without drug	0	1.85	-1.01	0.94	inactive

No new results follow: entries from further up.
no.	Gene	combined z-score class	viability z-score with doxorubicin	viability z-score without drug	z-score of drug to no-drug ratio	doxorubicin viability vs non-targeting	Call
30	Mcmbp (GeneID 210711)	no change with or without drug	-1.01	-1.18	-0.11	0.85	inactive
31	A730085E03Rik (GeneID 100504650)	no change with or without drug	0	-0.51	0.45	0.94	inactive
32	Arl5b (GeneID 75869)	no change with or without drug	-0.34	0	-0.22	0.91	inactive
33	Actrt1 (GeneID 73360)	no change with or without drug	-0.67	-0.51	-0.22	0.88	inactive
34	Acaca (GeneID 107476)	no change with or without drug	1.35	0.84	0.9	1.06	inactive
35	Slit2 (GeneID 20563)	no change with or without drug	1.35	0.51	1.12	1.06	inactive
36	Nfrkb (GeneID 235134)	no change with or without drug	-0.34	-0.84	0.34	0.91	inactive
37	Sgsm1 (GeneID 52850)	high cell count without drug only	-0.22	2.53	-1.57	0.92	inactive
